For four sequences, isolated mass results are on record in patent publication US6838445B1 (Kyogo Itoh, priority 1998, dated 2005).

Data set [1] is described as follows: general procedure: Fmoc solid-phase peptide synthesis; Fmoc-Leu-Alko Resin. The note with it: whole synthesis, scale 100 mg resin.
Data set [2] in a line: general procedure: Fmoc solid-phase peptide synthesis; Fmoc-Phe-Alko Resin. To be noted: whole synthesis, scale 100 mg resin.

Where no end group is shown, it is not given here.

As for KMKTERRMKKL, in data set [1], the isolated mass is 38.1 mg.

The sequence AFRQLSHRF yielded an isolated mass in data set [2] of 18.4 mg.

Consider RMKKLDEEALL, for which, in data set [1], the isolated mass was 28.8 mg. The same measure, in the same setting: then RMKKLDEEAL, with 24.6 mg.
